# Reference: PubChem BioAssay (Tox21)
# Sequences of proteins named here, by UniProt entry; tags and fusion partners are left off.
# UniProt P14416, whole entry, looked up: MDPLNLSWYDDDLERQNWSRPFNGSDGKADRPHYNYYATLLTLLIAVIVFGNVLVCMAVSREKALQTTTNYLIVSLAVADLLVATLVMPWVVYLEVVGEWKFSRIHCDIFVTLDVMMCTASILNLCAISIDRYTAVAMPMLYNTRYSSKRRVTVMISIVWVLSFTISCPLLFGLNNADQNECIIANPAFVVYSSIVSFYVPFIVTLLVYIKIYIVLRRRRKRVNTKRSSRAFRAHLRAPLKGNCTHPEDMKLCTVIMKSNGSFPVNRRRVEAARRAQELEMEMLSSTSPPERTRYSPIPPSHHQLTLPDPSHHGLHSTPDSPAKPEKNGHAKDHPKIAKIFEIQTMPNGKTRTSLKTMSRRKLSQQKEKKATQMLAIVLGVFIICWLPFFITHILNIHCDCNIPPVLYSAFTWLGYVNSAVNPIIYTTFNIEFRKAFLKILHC
# Values joined by “and” are separate entries in the source; they are usually repeats but may differ in a detail not shown here. Equal entries are not always repeated. Inconclusive means that the source gave no clear call. Such entries were picked first, then a sample of the others. For part of these data: Potencies of inconclusive entries are doubtful fits and often do not repeat. Active and inactive are the calls of the source. Unless noted, the call rests on the fitted dose curve.
# How the values were obtained:
# [1] = cAMP Responsive Elements (CRE) small molecule antagonists, cell-based qHTS assay (AID 1963591; active means well fitted inhibition curve with a large enough effect in the signal ratio in the repeat runs, not every such curve was filed as active; inconclusive means weak or mixed curves, or effect the other way; the % refers to the signal ratio); conditions: CRE-bla HEK293T, beta-lactamase FRET ratio; activity change, negative = inhibition: at 92.4 µM (top of the series) unless noted
# How it was run: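 qHTS in CRE-bla HEK 293T cells: compound in DMSO, then 0.25 uM NKH477 (final), 3 h at 37 °C/5% CO2; beta-lactamase FRET read-out after 2 h substrate incubation.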
# [2] = target: Beta-2 adrenergic receptor (Homo sapiens) (UniProt P07550); assay: Adrenergic beta2 receptor (ADRB2) small molecule agonists, cell-based qHTS assay (AID 1963593); conditions: CHO-ADRB2 cells, cAMP HTRF, 30 min; further: potency means the concentration at half of the fitted maximal effect;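 on activation: CHO cells stably overexpressing human ADRB2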
# How it was run: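 CHO cells stably over-expressing ADRB2 were plated overnight at 37C, then dosed with compounds plus a stimulation mix containing 100uM IBMX and 25uM Ro-20-1724 for 0.5hr at room temperature. cAMP was measured by HTRF competition, 1hr.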
# [3] = target: D(2) dopamine receptor (Homo sapiens) (UniProt P14416); assay: Dopamine D2 receptor (DRD2) small molecule antagonists, cell-based qHTS assay (AID 1963595; active means well fitted inhibition curve with a large enough effect in the signal ratio in the repeat runs, with a control signal flat; inconclusive means weak or mixed curves, or effect the other way; the % refers to the signal ratio; further: potency means the concentration at half of the fitted maximal effect); conditions: HEK293-DRD2 cAMP HTRF antagonist mode; activity change, negative = inhibition: at 92.4 µM (top of the series) unless noted
# How it was run: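 Cells were plated and grown for 24 h at 37 °C. Ro20-1724 (0.1 mM final) went in first, then compound for 10 min. NKH477 (200 nM) with quinpirole (12 nM) followed for 30 min at RT, then HTRF detection reagents for 1 h.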
# [4] = target: Beta-2 adrenergic receptor (Homo sapiens) (UniProt P07550); assay: Adrenergic beta2 receptor (ADRB2) small molecule antagonists, cell-based qHTS assay (AID 1963592); conditions: CHO-ADRB2 cells, isoproterenol-stimulated cAMP HTRF ratio, 0.5 h; activity change, negative = inhibition: at 92.4 µM (top of the series) unless noted; further: nearly all actives have a fitted effect of over 50% in size; further: potency means the concentration at half of the fitted maximal effect
# How it was run: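 Cells (CHO, stable ADRB2 overexpression) incubated 18-20hr at 37C; compounds added from DMSO; agonist mix (1nM isoproterenol, 100uM IBMX, 25uM Ro-20-1724) added; 0.5hr RT; d2-cAMP and anti-cAMP-cryptate added; 1hr RT; 665/615 nm read.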
# [5] = target: D(2) dopamine receptor (Homo sapiens) (UniProt P14416); assay: Dopamine D2 receptor (DRD2) small molecule agonists, cell-based qHTS assay (AID 1963594); conditions: HEK293-DRD2 cAMP HTRF, agonist mode, 30 min; activation: at 92.4 µM (top of the series) unless noted; further: nearly all actives have a fitted effect of over 35% in size; further: potency means the concentration at half of the fitted maximal effect
# How it was run: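 HEK293 cells stably expressing DRD2 were cultured 24 h at 37 C, then given Ro20-1724 (0.1 mM final) and compounds for 10 min at room temperature. NKH477 (200nM) was then added for 30 min. cAMP was read by HTRF.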
# [6] = activation: at 92.4 µM (top of the series) unless noted
# On the % scale 0 is the no-effect control and ±100 the full control effect.
smiles,measurement,setting,value
NC(=O)c1ccc([N+](=O)[O-])cc1,Potency,[1],inactive
same,activation,[2]; [6],inconclusive: -41.7%
same,Potency,[3],inactive
COC(=O)c1ccc(OC)cc1,Potency,[1],inactive
same,activation,[2]; [6],inconclusive: 10.3%
same,Potency,[3],inactive
CCCCN(CCO)CCO,Potency,[1],inactive
same,Potency,[3],inactive
COC(=O)Nc1ccc(Cl)c(Cl)c1,Potency,[4],inactive
O=[N+]([O-])c1ccc(/C=C/c2ccc([N+](=O)[O-])cc2S(=O)(=O)O)c(S(=O)(=O)O)c1,"activity change, negative = inhibition",[4],inconclusive: 16.1%
same,Potency,[2]; [6],inconclusive: 61.1 µM
same,activation,[2]; [6],inconclusive: -53.6%
same,Potency,[3],"inconclusive: 68.6 µM [cytotoxic, partial curve, poor fit]"
NC(=O)c1ccccc1N,Potency,[4],inactive
same,Potency,[2]; [6],inactive
C=CC(=O)OCCCl,"activity change, negative = inhibition",[4],inconclusive: -0.107%
same,activation,[2]; [6],inconclusive: -9.64%
Cc1cc(CCCOc2c(C)cc(-c3noc(C(F)(F)F)n3)cc2C)on1,"activity change, negative = inhibition",[4],inconclusive: -3.25% [at 42.5 µM]
same,Potency,[2]; [6],"inconclusive: 0.211 µM [inhibitor, partial curve, poor fit]"
same,Potency,[5],"inconclusive: 29.8 µM [falling, partial curve, poor fit]"
O=C(O)CNc1ccccc1,Potency,[4],inactive
same,Potency,[2]; [6],inactive
OC1CCCC1,Potency,[4],"inconclusive: 27.3 µM [inhibitor, partial curve]"
same,activation,[2]; [6],inconclusive: -31.6%
same,activation,[2]; at 92.4 µM (top of the series),inactive: -8.13%
CC(=O)N(C)C,Potency,[4],inactive
same,Potency,[2]; [6],"inconclusive: 54.5 µM [inhibitor, single point]"
same,activation,[2]; [6],inconclusive: -15.1%
same,Potency,[5],"inconclusive: 0.0016 µM [rising, full curve, poor fit]"
Cc1ccccc1C(=O)O,Potency,[4],inconclusive: 60 µM [inhibitor]
same,Potency,[2]; [6],"inconclusive: 53.5 µM [inhibitor, partial curve]"
CCNC(=O)C(C)OC(=O)Nc1ccccc1 (stereo not given),"activity change, negative = inhibition",[4],inconclusive: 2.27%
same,activation,[2]; [6],inconclusive: 6.99%
CCn1cc(C(=O)O)c(=O)c2cc(F)c(N3CCNCC3)nc21,"activity change, negative = inhibition",[4],inconclusive: -5.54% [at 42.5 µM]
same,activation,[2]; [6],inconclusive: -14.6% [at 42.5 µM]
CCC1(C)NC(=O)NC1=O (stereo not given),Potency,[4],inactive
same,activation,[2]; [6],inconclusive: -16.5%
CCCCCCCC(C)=O,"activity change, negative = inhibition",[4],inconclusive: 0.698%
same,Potency,[2]; [6],"inconclusive: 1.37 µM [inhibitor, partial curve, poor fit]"
CC(C)(C)C1=CC(=O)C(C(C)(C)C)=CC1=O,Potency,[4],inactive
same,Potency,[2]; [6],inconclusive: 0.106 µM [inhibitor]
CC(=O)c1cnccn1,Potency,[4],inactive
same,activation,[2]; [6],inconclusive: 17.5%
CC[N+](CC)(CC(=O)Nc1c(C)cccc1C)Cc1ccccc1 (tested in a mixture with another compound),"activity change, negative = inhibition",[4],inconclusive: 1.62% [at 42.5 µM]
same,Potency,[2]; [6],"inconclusive: 4.01 µM [inhibitor, single point]"
CCC(C)c1ccccc1 (stereo not given),Potency,[4],inactive
same,Potency,[2]; [6],inactive
O=S(=O)(O)c1ccc(Cl)cc1,Potency,[4],inactive
same,Potency,[2]; [6],inactive
Nc1ccc(NC(=O)c2ccc(N)cc2)cc1,Potency,[4],"inconclusive: 61.2 µM [falling, partial curve, poor fit]"
same,activation,[2]; [6],inconclusive: -62.3%
Nc1cccc(N)n1,Potency,[4],inconclusive: 29.6 µM and inconclusive: 27.3 µM
same,activation,[2]; [6],inconclusive: -36.8% and inconclusive: -8.06%
c1cc[nH]c1,Potency,[4],"inconclusive: 0.0024 µM [falling, full curve, poor fit]"
same,activation,[2]; [6],inconclusive: 19.2%
O=C(c1ccccc1)C1(O)CCCCC1,Potency,[4],inactive
same,Potency,[2]; [6],inactive
C=C(C)C(=O)OCC(C)O (stereo not given),Potency,[4],"inconclusive: 1.24 µM [rising, full curve, poor fit]"
same,activation,[2]; [6],inconclusive: 0.606%
CC(=O)OCc1ccco1,Potency,[4],"inconclusive: 2.42 µM [inhibitor, single point]"
same,Potency,[2]; [6],"inconclusive: 15.3 µM [inhibitor, partial curve, poor fit]"
same,activation,[2]; [6],inconclusive: 0.342%
Cn1c(=O)c2[nH]cnc2n(C)c1=O,Potency,[4],inactive
same,activation,[2]; at 42.5 µM (top of the series),inconclusive: -79.8%
same,activation,[2]; at 92.4 µM (top of the series),inconclusive: 14.3% and inconclusive: -1.94%
same,Potency,[5],"inconclusive: 13.3 µM [rising, full curve, poor fit]"
CC1(C)[C@@H]2CC[C@]3(C2)[C@@H]1C(=O)CCC3(C)C,Potency,[4],inactive
same,activation,[2]; [6],inconclusive: -19.2%
Cc1[nH]c(=O)c(C#N)cc1-c1ccc2nccn2c1,"activity change, negative = inhibition",[4],inconclusive: -25.8% [at 42.5 µM]
same,Potency,[2]; [6],"inconclusive: 33.5 µM [inhibitor, partial curve, poor fit]"
CC(C)[N+](C)(C)CC(O)COc1cccc2ccccc12 (stereo not given),Potency,[4],active: 15 µM
same,Potency,[2]; [6],"inconclusive: 7.5 µM [inhibitor, full curve]"
NC(CS)C(=O)O (stereo not given),Potency,[4],inactive
same,Potency,[2]; [6],"inconclusive: 13.3 µM [inhibitor, single point]"
CCN1CCN(C(=O)N[C@@H](C(=O)N[C@@H]2C(=O)N3[C@@H]2SC(C)(C)[C@H]3C(=O)O)c2ccccc2)C(=O)C1=O,Potency,[4],inactive
same,Potency,[2]; [6],"inconclusive: 1.33 µM [inhibitor, single point]"
CC1COC(=O)O1 (stereo not given),Potency,[4],inactive
same,Potency,[2]; [6],"inconclusive: 28.2 µM [inhibitor, single point]"
CCCCC(=O)O[C@]1(C(=O)CO)[C@H](C)C[C@H]2[C@@H]3CCC4=CC(=O)C=C[C@]4(C)[C@@]3(F)[C@@H](O)C[C@@]21C,Potency,[4],inactive
same,Potency,[2]; [6],"inconclusive: 2.37 µM [inhibitor, single point]"
CC(=O)Nc1ccc(S(=O)(=O)Nc2cc(C)on2)cc1,"activity change, negative = inhibition",[4],inconclusive: 2.68% [at 42.5 µM]
same,activation,[2]; [6],inconclusive: 10.2% [at 42.5 µM]
Nc1c(S(=O)(=O)O)cc(Br)c2c1C(=O)c1ccccc1C2=O,Potency,[4],"inconclusive: 21.7 µM [falling, partial curve, poor fit]"
same,Potency,[2]; [6],"inconclusive: 27.3 µM [inhibitor, partial curve]"
same,activation,[2]; [6],inconclusive: -14.2% [at 42.5 µM]
same,Potency,[5],inconclusive: 48.6 µM
same,"activity change, negative = inhibition",[3],inconclusive: -3.7%
COc1ccc(CCN(C)CCCC(C#N)(c2ccc(OC)c(OC)c2)C(C)C)cc1OC (stereo not given),Potency,[4],"inconclusive: 68.5 µM [inhibitor, single point]"
same,Potency,[2]; [6],"inconclusive: 30.6 µM [inhibitor, partial curve, poor fit] and inconclusive: 15 µM [inhibitor, partial curve, poor fit]"
Cc1onc(-c2ccccc2)c1-c1ccc(S(N)(=O)=O)cc1,Potency,[4],inactive
same,Potency,[2]; [6],inactive
same,Potency,[5],inactive
COc1cc2nc(N3CCN(C(=O)C4CCCO4)CC3)nc(N)c2cc1OC (stereo not given),"activity change, negative = inhibition",[4],inconclusive: -30.7% [at 42.5 µM]
same,activation,[2]; [6],inconclusive: -14.8% [at 42.5 µM]
CCC(=O)C1CC(C(C)C)CC=C1C (stereo not given),Potency,[4],inactive
same,activation,[2]; [6],inconclusive: -1.51%
CC(CCl)OP(=O)(OC(C)CCl)OC(C)CCl (stereo not given),Potency,[4],"inconclusive: 32.3 µM [inhibitor, partial curve, poor fit]"
same,Potency,[2]; [6],"inconclusive: 68.7 µM [inhibitor, single point] and inactive"
CCCCCCCCCCCCCC(=O)OC,Potency,[4],inactive
same,activation,[2]; [6],inconclusive: 1.36%
same,activation,[5],inconclusive: 6.26%
Nc1nnc(-c2cccc(Cl)c2Cl)c(N)n1,"activity change, negative = inhibition",[4],inconclusive: 17.4% [at 42.5 µM]
same,Potency,[2]; [6],"inconclusive: 26.6 µM [activator, single point]"
COC(c1ccccc1)(c1ccccc1)[C@H](Oc1nc(C)cc(C)n1)C(=O)O,Potency,[4],inactive
same,"activity change, negative = inhibition",[3],inconclusive: -21.1% [at 42.5 µM]
CC(C)C[C@H]1C(=O)N2CCC[C@H]2[C@]2(O)O[C@](NC(=O)[C@@H]3C=C4c5cccc6[nH]c(Br)c(c56)C[C@H]4N(C)C3)(C(C)C)C(=O)N12,Potency,[4],"inconclusive: 23.2 µM [inhibitor, single point]"
same,Potency,[2]; [6],"inconclusive: 20.7 µM [inhibitor, partial curve]"
same,Potency,[5],active: 0.0923 µM
Nc1ccc(N)c([N+](=O)[O-])c1,Potency,[4],inconclusive: 25.8 µM
same,Potency,[2]; [6],inconclusive: 30.6 µM
same,Potency,[5],inconclusive: 28.4 µM
same,Potency,[3],inconclusive: 48.6 µM [cytotoxic]
c1ccc(CCCc2ccncc2)cc1,activation,[2]; [6],inconclusive: 1.98%
COC(=O)CCc1ccc(OCC(O)CNC(C)C)cc1 (stereo not given),Potency,[4],active: 9.44 µM
same,Potency,[2]; [6],"inconclusive: 5.31 µM [inhibitor, full curve]"
same,Potency,[5],inconclusive: 18.8 µM
FC(F)(Cl)C(F)(Cl)Cl,Potency,[4],inactive
same,activation,[2]; [6],inconclusive: 3.12%
same,Potency,[3],inactive
CCCCCCCCS(=O)(=O)Cl,Potency,[2]; [6],inactive
CC1(C)[C@@H](O[C@H]2O[C@H](C(=O)O)[C@@H](O)[C@H](O)[C@H]2O[C@@H]2O[C@H](C(=O)O)[C@@H](O)[C@H](O)[C@H]2O)CC[C@]2(C)[C@H]3C(=O)C=C4[C@@H]5C[C@@](C)(C(=O)O)CC[C@]5(C)CC[C@@]4(C)[C@]3(C)CC[C@@H]12,activation,[2]; [6],inconclusive: -27.1% [at 42.5 µM] and inconclusive: -14.7% [at 42.5 µM]
CC(C)(C)C(=O)O,Potency,[2]; [6],"inconclusive: 21.8 µM [inhibitor, partial curve]"
COc1cccc2sc(N)nc12,activation,[2]; [6],inconclusive: -13.8%
CC(=O)CC(c1ccc([N+](=O)[O-])cc1)c1c(O)c2ccccc2oc1=O (stereo not given),"activity change, negative = inhibition",[4],inconclusive: -31% [at 42.5 µM]
same,Potency,[2]; [6],inactive
same,Potency,[3],inactive
CC(=O)Nc1ccc(S(N)(=O)=O)cc1,Potency,[4],inactive
same,activation,[2]; [6],inconclusive: -1.81%
same,activation,[5],inconclusive: 29.3%
CC(C)(C)NCC(O)COc1ccc(NC(=O)NC2CCCCC2)cc1 (stereo not given),Potency,[4],active: 4.73 µM
same,Potency,[5],"inconclusive: 0.75 µM [rising, full curve, poor fit]"
O=S(O)O,Potency,[4],inconclusive: 0.0004 µM
same,activation,[2]; [6],inactive: -15.9% [at 19 µM]
same,activation,[5],inactive: 2.66% [at 19 µM]
COc1ccccc1OCC(O)COC(N)=O (stereo not given),Potency,[2]; [6],inactive

# Given with tabs: entries from further up
smiles	measurement	setting	value
COC(=O)c1ccc(OC)cc1	Potency	[1]	inactive
CCCCCCCC(C)=O	activity change, negative = inhibition	[4]	inconclusive: 0.698%
CC(=O)OCc1ccco1	activation	[2]; [6]	inconclusive: 0.342%
